According to patent US4530931A, “8-Quinoline carbanilates for the inhibition of lipolysis” (priority 1984, dated 1985):
At least one compound was matched to its structure with a doubt left.

System: Canine cardiac lipases
Assay: Myocardial lipase assay
Format: biochemical
Settings: 100 μM compound, tested in duplicate

How did the “Lipase % Inh. at 100 μM” value turn out when COc1ccc(CC(=O)Oc2cccc3cccnc23)cc1 [No. 30, 8-Quinoloyl-4-methoxyphenylAcetate] was run?
The value was 0%.
